This is an account of results in PubChem BioAssay AID2685 (National Center for Advancing Translational Sciences (NCATS), 2010).

The list shows a part of the results. Further columns of the screen follow, without active or inactive calls. Most of these compounds were active or inconclusive in the main read-out, so they are no random draw. Potencies come from curve fits of mixed quality, noted in brackets.

A short description of the test: qHTS Assay for Lipid Storage Modulators in Drosophila S3 Cells.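 On cell number change: cells counted by Cell Tracker Red CMTPX staining in the red channel.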 Particulars: BODIPY lipid droplet fluorescence, 18-24 h; for cell number change: measured here: cell count max response, cells fed with added oleic acid. Summed up: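 Laser-scanning cytometry quantifies lipid droplet accumulation (500–530 nm total intensity; droplet/cell object ratio) in oleic acid-fed (400 uM added) Drosophila S3 cells treated with a concentration series. 20 uM Triacsin C defined 100% inhibition.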

[1] abbreviates: measured here: cell number channel AC50, cells fed with added oleic acid.
The mark [2] stands for this setting: measured here: lipid fluorescence (Fed channel) AC50, cells fed with added oleic acid.

Take `Cc1ccc(N(C)C(=O)CC(C)S(=O)(=O)c2ccc3c(c2)NC(=O)CO3)cc1` (stereo unspecified): the cell number change is 11.6%. The AC50 under setting [1] is 1.46 µM [rising, full curve, poor fit].

Turning to `Cc1[nH]c2ccccc2c1C(=O)COC(=O)c1c(-c2ccccc2)noc1C`, the cell number change is -50%. Moreover, the AC50 under setting [1] is 5.8 µM [rising, single point]. As for `Cn1c(SCC(=O)Nc2ccc3c(c2)n(C)c(=O)n3C)nnc1-c1ccncc1`, the cell number change is -11.5%. Besides, the AC50 under setting [2] was 10.3 µM [rising, partial curve]. For `O=C(N/N=C/C=C\c1ccccc1[N+](=O)[O-])c1cccnc1`, the AC50 runs as follows: under setting [1], 0.731 µM [rising, single point]; under setting [2], 1.3 µM [rising, full curve].

For `O=C(CSc1ccccc1C(=O)NCc1ccccc1)NC12CC3CC(CC(C3)C1)C2`, the cell number change was -33.6%. For the same compound, the AC50 under setting [1] is 16.4 µM [falling, single point]. The AC50 under setting [2] was 14.6 µM [falling, partial curve].

Turning to `COc1cc(-c2nnc(COc3ccc4cc(Br)ccc4c3)o2)cc(OC)c1OC`, the cell number change is -2.43%. Moreover, the AC50 under setting [2] is 23.1 µM [rising, single point]. On to `COC(=O)c1cc(S(=O)(=O)NCC(C)c2ccccc2)cn1C` (stereo unspecified), for which the cell number change was -15.3%. Regarding `COc1ccccc1NC1=C(Cl)C(=O)N(c2ccccc2)C1=O`, the cell number change was -0.797%. In addition, under setting [2], the AC50 is 16.4 µM [falling, partial curve, poor fit]. With `CCOc1ccc(N(CC(=O)NN=C2CCN(C)CC2)S(=O)(=O)c2ccc(Br)cc2)cc1`, the cell number change was -11.3%. In addition, the AC50 under setting [2] is 0.58 µM [rising, single point]. In the case of `O=C(CSc1nc2ccccc2[nH]1)N1CCN(c2ccc(F)cc2)CC1`, the cell number change was 3.75%. In addition, the AC50 under setting [2] is 0.116 µM [rising, full curve, poor fit]. On to `Cc1cc(-c2ccc(C(C)C)c(S(=O)(=O)N3CCOc4ccccc43)c2)on1`, for which the cell number change was -38.2%. Besides, under setting [1], the AC50 is 20.6 µM [falling, single point]. Moreover, the AC50 under setting [2] is 2.91 µM [falling, single point]. `Cc1cccc(NC(=O)c2cc3c(=O)n4ccccc4nc3s2)c1`: the cell number change turned out to be 6.52%.

As to `CC(=O)Nc1ccc(NC(=O)CSCc2cnn(-c3ccccc3)c2-n2cccc2)cc1`, the AC50 under setting [2] is 0.00461 µM [falling, full curve, poor fit]. As to `COCCNC(=O)C1CC(=O)N(C2CCCCC2)C1` (stereo unspecified), the cell number change stood at 28.8%. Under setting [2], the AC50 was 0.651 µM [rising, full curve, poor fit].

As for `CCCn1c(N)c(N(CCOC)C(=O)c2ccc(N(C)S(=O)(=O)c3ccc(C)cc3)cc2)c(=O)[nH]c1=O`, the cell number change stood at 45.4%. The AC50 under setting [1] was 29.1 µM [rising, single point]. As for `OCC1OC(n2cnc3c(NC4CCCCC4)ncnc32)C(O)C1O` (stereo unspecified), the cell number change was -3.05%. Moreover, the AC50 under setting [2] is 0.00517 µM [falling, full curve, poor fit]. Take `Cc1ccc(-c2nnc(SCC(=O)NCCN3C(=O)CSC3=O)n2C)cc1`: the cell number change was 15%. Moreover, the AC50 under setting [2] was 0.146 µM [falling, full curve, poor fit]. On to `CCN(CC(=O)Nc1ccc(NC(C)=O)cc1)CC(=O)Nc1cccc(Cl)c1`, for which the cell number change was found to be 51.1%. Moreover, the AC50 under setting [1] was 10.3 µM [rising, partial curve, poor fit]. Regarding `COc1cccc(OCCCN2CCCCCC2)c1`, the cell number change worked out at 12.4%. The AC50 under setting [1] was 0.461 µM [rising, single point].

`Cc1cc(/C=C2/C(=O)N(C)C(=S)N2C)c(C)n1C1CC1`: the AC50 under setting [2] was 16.4 µM [falling, partial curve, poor fit]. As to `CC(=O)OC1COC(N2CCc3cc(Br)c([N+](=O)[O-])cc32)C(OC(C)=O)C1OC(C)=O` (stereo unspecified), the cell number change is 25.9%. For the same compound, the AC50 under setting [2] is 2.91 µM [rising, partial curve]. For `CCCC1=NN(c2ccc([N+](=O)[O-])cc2)C(=O)/C1=C/N(C)C`, the cell number change is -26.2%. Also, the AC50 under setting [1] was 6.51 µM [rising, partial curve, poor fit]. `CCCn1c(-c2ccc(OC)cc2)nc2c(=O)n(C)c(=O)[nH]c21`: under setting [2], the AC50 is 6.51 µM [falling, full curve].

Turning to `Cc1ccc(-c2nc(SC(C)C(=O)N3CCOCC3)n[nH]2)cc1` (stereo unspecified), the cell number change stood at 16.1%. Also, the AC50 under setting [1] is 2.06 µM [rising, single point]. Turning to `C/C(=N\Nc1nc(C)cc(C)n1)c1ccc(N2CCOCC2)cc1`, the cell number change was 24.2%. Consider `Cc1cc2oc(=O)cc(CN3CCOCC3)c2c(C)c1Cl`, for which the cell number change came out at 44.4%. The AC50 under setting [1] is 29.1 µM [rising, single point]. The AC50 under setting [2] is 0.259 µM [rising, full curve]. Consider `N#CCC(=O)Nc1ccc(C(=O)OCC(=O)NCc2ccc3c(c2)OCO3)cc1`, for which the cell number change is -9.81%. Moreover, the AC50 under setting [2] was 1.3 µM [rising, full curve]. Take `CC1(C)Cc2c(c(N3CCOCC3)nc3sc(C(=O)Nc4ccc(Cl)cc4)c(N)c23)CO1`: the cell number change stood at 0.952%. With `CCN1CCN(c2ccc(S(=O)(=O)N3CCOCC3)cc2NC(=O)c2ccccc2SC)CC1`, the cell number change was -6.94%. Take `COc1ccc(CCNC(=O)c2cc(C3CC3)nc3c2cnn3C(C)C)cc1OC`: the cell number change is -13.3%. Besides, under setting [2], the AC50 is 14.6 µM [falling, partial curve, poor fit].

In the case of `Cc1ccc(S(=O)(=O)N2CCC(Oc3cccc(C(F)(F)F)c3)CC2)cc1`, the cell number change is 15.9%. Regarding `CCOc1ccc(C(=O)N/N=C/c2cc(Cl)ccc2[N+](=O)[O-])cc1`, the AC50 under setting [2] was 0.92 µM [rising, full curve]. As to `Cc1cccc(C)c1NC(=O)CNC(=O)C1CC(=O)N(Cc2ccccc2)C1` (stereo unspecified), the AC50 under setting [2] is 0.116 µM [rising, full curve, poor fit].

On to `O=C(Oc1ccc2c(=O)c(Cl)coc2c1)c1ccncc1`, for which the cell number change is -11.3%. For the same compound, under setting [2], the AC50 is 3.26 µM [falling, single point]. For the compound `O=C(NCc1ccccc1)C1CCCN1S(=O)(=O)c1ccc(F)cc1` (stereo unspecified), the cell number change was -14.4%.

For the compound `O=C(c1ccccc1C(=O)N(c1ccccc1)c1ccccc1)N1CCCCC1`, the cell number change was -13.6%.

Take `O=C(NCc1ccccc1)c1ccc(CSc2ccccc2)o1`: the cell number change is 15.8%. The half-maximal activity concentration (AC50) under setting [2] was 32.6 µM [rising, single point]. On to `CCC(=O)N1CCC(c2ccc(OC)cc2)=N1`, for which the AC50 under setting [1] was 0.13 µM [rising, full curve, poor fit].

`O=C(CCn1c(=S)[nH]c2ccccc2c1=O)Nc1cccc(Cl)c1`: the cell number change turned out to be 58.5%. Under setting [2], the AC50 is 5.8 µM [falling, single point]. Regarding `CCOc1ccc(N2CC(C(=O)NC3CCCC3)CC2=O)cc1` (stereo unspecified), the cell number change turned out to be 1.9%. Besides, the concentration at half-maximal activity (AC50) under setting [2] was 0.231 µM [rising, full curve, poor fit]. Regarding `COc1ccc(Nc2nc(-c3ccc4c(c3)NC(=O)CO4)cs2)cc1`, the cell number change is 94.1%. Turning to `NC(=O)c1cc(-c2ccccc2)nc(N2CCOCC2)n1`, the cell number change is 35.6%. Further, under setting [1], the AC50 was 25.9 µM [rising, single point]. Regarding `O=C(NC(=O)c1ccccc1)Nc1ccccc1`, the AC50 runs as follows: under setting [1], 1.84 µM [falling, partial curve]; under setting [2], 6.51 µM [falling, single point]. As for `O=C(NC(=S)Nc1ccc(Br)cn1)c1cccs1`, the AC50 runs as follows: under setting [1], 0.731 µM [rising, single point]; under setting [2], 0.58 µM [falling, full curve]. Consider `O=C(COC(=O)c1ccco1)NCc1ccco1`, for which the cell number change amounted to 5.19%. For `COc1ccc(CCNC(=O)CCC(=O)N2CC(C)Oc3ccc(Cl)cc32)cc1OC` (stereo unspecified), the cell number change was -17.9%. As for `CC(=O)c1cccc(NC(=S)N2CCN(S(C)(=O)=O)CC2)c1`, the cell number change was -1.7%. Besides, the AC50 under setting [2] was 20.6 µM [rising, single point]. Take `COc1ccc2cc(/C=N/NC(=O)CN(c3ccccc3)S(=O)(=O)c3ccccc3)c(Cl)nc2c1`: the cell number change was found to be 11%. Further, the AC50 under setting [2] is 2.06 µM [rising, full curve]. `COC(=O)c1cccc(NC(=O)CSc2nnc(COc3cccc(C)c3)n2C)c1`: the cell number change is -13.3%. Further, the AC50 under setting [1] is 0.146 µM [falling, full curve, poor fit]. In addition, under setting [2], the half-maximal activity concentration (AC50) is 0.058 µM [falling, full curve, poor fit]. Regarding `CS(=O)(=O)N(CC(=O)N1CCN(Cc2ccccc2)CC1)Cc1ccccc1`, the cell number change was -20%. Also, the AC50 under setting [1] is 7.31 µM [falling, single point]. The AC50 under setting [2] was 6.51 µM [falling, single point].

Take `O=C(CSc1nc2ccccc2c(=O)n1-c1ccc(F)c(Cl)c1)Nc1cccc(S(=O)(=O)N2CCOCC2)c1`: the cell number change is 13.7%. The AC50 under setting [2] is 6.51 µM [rising, single point]. Turning to `Cc1ccc(C(=O)NC2CCN(C(=O)Nc3ccc(F)cc3)CC2)cc1`, the AC50 under setting [2] is 0.116 µM [rising, partial curve, poor fit]. As to `COc1cc(/C=N/NC(=O)NC23CC4CC(CC(C4)C2)C3)ccc1O`, the cell number change is -36.1%. In addition, the AC50 under setting [1] was 0.411 µM [falling, full curve, poor fit].

For `CN(C)CCNC(=O)c1cccc(S(=O)(=O)Nc2ccc(F)cc2)c1`, the cell number change is -3.09%. For the same compound, the concentration at half-maximal activity (AC50) under setting [2] was 0.146 µM [falling, single point]. For `COc1ccc(CCN2CN(S(=O)(=O)c3ccc(OC)cc3)c3nc4ccccc4nc32)cc1`, the cell number change was 16.7%. Besides, the AC50 under setting [2] was 1.84 µM [rising, partial curve]. In the case of `CN1c2ccccc2N(C)C1(C)c1cccc2ccccc12`, the cell number change came out at 12%. In addition, the AC50 under setting [2] is 4.61 µM [rising, full curve, poor fit]. As to `Fc1ccc(-n2c(-c3ccco3)nc3nc4ccccc4nc32)cc1`, the cell number change was -9.03%. In addition, the AC50 under setting [2] is 0.731 µM [rising, full curve].

`O=C(O)C1CCCCN1S(=O)(=O)c1ccccc1` (stereo unspecified): the cell number change was -55.4%. Further, the AC50 under setting [1] is 3.66 µM [falling, full curve]. Under setting [2], the AC50 is 20.6 µM [falling, single point]. For the compound `C=CCNC(=O)CCNS(=O)(=O)c1ccc(Br)cc1`, the cell number change is -1.94%. Also, the AC50 under setting [2] was 0.58 µM [falling, partial curve, poor fit]. As to `CCCCCN1C2=NCCN2c2ccccc21`, the cell number change stood at 22%. Also, the AC50 under setting [2] is 32.6 µM [rising, single point]. Turning to `O=C(NC1=NCCS1)c1ccccc1`, the cell number change came to 20.4%. For `COc1ccc(NC(=O)Nc2ccc([N+](=O)[O-])cc2)cn1`, the cell number change was 24.6%. In addition, under setting [2], the AC50 was 0.116 µM [rising, single point].

In general, AC50 refers to the concentration giving half of the maximal activity seen.
